Consider 5 molecules from PubChem BioAssay AID248 (DTP/NCI, 2004).

The subject of the assay is L1210 leukemia ip in BDF1 mice, survival T/C. The assay can be described thus: NCI In Vivo Anticancer Drug Screen. Data for tumor model L1210 Leukemia (intraperitoneal) in B6D2F1 (BDF1) mice. The settings on record: T/C endpoint: mean survival time, higher T/C = longer survival.
Where [1] appears, read: dose: 3.0 mg/kg/injection, schedule: Q01DX009 (ip), vehicle: saline.

The list shows only some results of the screen, not a fair sample: it covers a few groups of compounds. Other doses and runs of a compound may be missing. T/C: endpoint of the treated group in % of that of the vehicle group. Where survival is the endpoint, the PubChem record calls one and a half times the control and up active, and a quarter to a half above the control has no call in these data; cut-offs in other NCI protocols can differ. Some entries show no survivor count and are marked so; the dose need not have been tolerated. Schedules are NCI's codes, taken here to give the interval after Q, in days (D) or hours (H), and the number of doses after X. Some entries were tested several times; their values stand side by side, smallest first.

Turning to `BrCCN(CCBr)Cc1ccccc1`, the T/C is, setting by setting: (dose: 0.75 mg/kg/injection, schedule: Q01DX009 (ip), vehicle: saline with Tween-80) 122 % of control [survivor count not shown]; (dose: 0.75 mg/kg/injection, schedule: Q01DX009 (ip), vehicle: saline) 92 % of control [survivor count not shown]; (dose: 1.5 mg/kg/injection, schedule: Q01DX009 (ip), vehicle: saline with Tween-80) 128 % of control [survivor count not shown]; (dose: 1.5 mg/kg/injection, schedule: Q01DX009 (ip), vehicle: saline) 105 % of control [survivor count not shown]; (dose: 3.0 mg/kg/injection, schedule: Q01DX001 (ip), vehicle: saline with Tween-80) 113 % of control [survivor count not shown]; (dose: 3.0 mg/kg/injection, schedule: Q01DX009 (ip), vehicle: saline with Tween-80) 136 [survivor count not shown] and 144 % of control [survivor count not shown]. For the same molecule, the T/C under setting [1] is 117 % of control [survivor count not shown]; the T/C (dose: 3.0 mg/kg/injection, schedule: Q04DX003 (ip), vehicle: saline with Tween-80) was 127 % of control [survivor count not shown]; the T/C (dose: 4.0 mg/kg/injection, schedule: Q04DX003 (ip), vehicle: saline with Tween-80) is 129 % of control [survivor count not shown]; the T/C (dose: 6.0 mg/kg/injection, schedule: Q01DX001 (ip), vehicle: saline with Tween-80) was 119 % of control [survivor count not shown]; the T/C (dose: 6.0 mg/kg/injection, schedule: Q01DX009 (ip), vehicle: saline with Tween-80) was 118 % of control [survivor count not shown]; the T/C (dose: 6.0 mg/kg/injection, schedule: Q01DX009 (ip), vehicle: saline) is 102 % of control [survivor count not shown]. Moreover, the T/C reads like this: (dose: 6.0 mg/kg/injection, schedule: Q04DX003 (ip), vehicle: saline with Tween-80) 118 [survivor count not shown] and 127 % of control [survivor count not shown]; (dose: 9.0 mg/kg/injection, schedule: Q04DX003 (ip), vehicle: saline with Tween-80) 117 % of control [survivor count not shown]; (dose: 12.0 mg/kg/injection, schedule: Q01DX001 (ip), vehicle: saline with Tween-80) 116 % of control [survivor count not shown]; (dose: 12.0 mg/kg/injection, schedule: Q01DX009 (ip), vehicle: saline) 120 % of control [survivor count not shown]; (dose: 12.0 mg/kg/injection, schedule: Q04DX003 (ip), vehicle: saline with Tween-80) 104 % of control [survivor count not shown].

`CN1C2CCC(OC(=O)C(O)(c3ccccc3)C3CCCC3)C1CC2` (stereo unspecified): the T/C (dose: 75.0 mg/kg/injection, schedule: Q04DX002 (ip), vehicle: saline with Tween-80) is 102 % of control [survivor count not shown]; the T/C (dose: 150.0 mg/kg/injection, schedule: Q04DX002 (ip), vehicle: saline with Tween-80) was 102 % of control [survivor count not shown]; the T/C (dose: 300.0 mg/kg/injection, schedule: Q04DX002 (ip), vehicle: saline with Tween-80) was 94 % of control [survivor count not shown].

`C=CCN(CCCl)CCCl`: the T/C by setting is: (dose: 0.09 mg/kg/injection, schedule: Q01DX009 (ip), vehicle: saline) 104 % of control [survivor count not shown]; (dose: 0.1 mg/kg/injection, schedule: Q01DX009 (ip), vehicle: saline) 110 % of control [survivor count not shown]; (dose: 0.13 mg/kg/injection, schedule: Q01DX009 (ip), vehicle: saline) 109 % of control [survivor count not shown]; (dose: 0.2 mg/kg/injection, schedule: Q01DX009 (ip), vehicle: saline) 113 [survivor count not shown] and 143 % of control [survivor count not shown]; (dose: 0.3 mg/kg/injection, schedule: Q01DX009 (ip), vehicle: saline) 120 % of control [survivor count not shown]; (dose: 0.4 mg/kg/injection, schedule: Q01DX001 (ip), vehicle: saline) 119 % of control [survivor count not shown]. For the same molecule, the T/C by setting is: (dose: 0.4 mg/kg/injection, schedule: Q01DX009 (ip), vehicle: saline) 123 % of control [survivor count not shown]; (dose: 0.5 mg/kg/injection, schedule: Q01DX001 (ip), vehicle: saline) 122 % of control [survivor count not shown]; (dose: 0.5 mg/kg/injection, schedule: Q01DX009 (ip), vehicle: saline) 135 % of control [survivor count not shown]; (dose: 0.6 mg/kg/injection, schedule: Q01DX001 (ip), vehicle: saline) 134 % of control [survivor count not shown]; (dose: 1.0 mg/kg/injection, schedule: Q01DX001 (ip), vehicle: saline) 128 [survivor count not shown] and 132 % of control [survivor count not shown]; (dose: 1.0 mg/kg/injection, schedule: Q01DX009 (ip), vehicle: saline) 91 % of control [survivor count not shown]. Besides, the T/C is 136 % of control [survivor count not shown] (dose: 1.5 mg/kg/injection, schedule: Q01DX001 (ip), vehicle: saline); 131 % of control [survivor count not shown] (dose: 2.0 mg/kg/injection, schedule: Q01DX001 (ip), vehicle: saline); 112 % of control [survivor count not shown] (dose: 2.5 mg/kg/injection, schedule: Q01DX001 (ip), vehicle: saline); 94 % of control [survivor count not shown] under setting [1]; 88 % of control [survivor count not shown] (dose: 4.4 mg/kg/injection, schedule: Q01DX009 (ip), vehicle: saline).

Consider `NC(C#CCN(CCCl)CCCl)C1CCCCC1` (stereo unspecified), for which the T/C runs as follows: (dose: 50.0 mg/kg/injection, schedule: Q01DX009 (ip), vehicle: Klucel (hydroxypropylcellulose) (HPC)) 95 % of control [survivor count not shown]; (dose: 100.0 mg/kg/injection, schedule: Q01DX009 (ip), vehicle: Klucel (hydroxypropylcellulose) (HPC)) 104 % of control [survivor count not shown].

For `CCCCCCN(CCCl)CCCl`, the T/C reads like this: (dose: 12.5 mg/kg/injection, schedule: Q01DX001 (ip), vehicle: saline) 116 % of control [survivor count not shown]; (dose: 25.0 mg/kg/injection, schedule: Q01DX001 (ip), vehicle: saline) 118 % of control [survivor count not shown].
